In patent US7514534:
No constants are given. Whether binding was seen depends on the method and setting. Some entries that bind do so weakly or less than the wild type. Values belong to the binder of their own block, whether it stands above or below them.

Chains of the proteins cited; added tags and fusions are not shown. Lines headed by an entry give the natural chain unless they say otherwise; changes in a name come on top. Residues count along the entry.
UniProt Q9NRE1: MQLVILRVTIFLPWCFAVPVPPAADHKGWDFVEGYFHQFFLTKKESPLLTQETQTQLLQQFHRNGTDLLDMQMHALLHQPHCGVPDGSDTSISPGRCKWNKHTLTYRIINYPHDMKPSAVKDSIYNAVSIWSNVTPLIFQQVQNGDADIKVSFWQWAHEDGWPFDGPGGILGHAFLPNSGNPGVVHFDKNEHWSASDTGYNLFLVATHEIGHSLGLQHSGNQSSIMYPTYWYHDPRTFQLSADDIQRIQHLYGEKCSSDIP
UniProt P14780, residues 107-707: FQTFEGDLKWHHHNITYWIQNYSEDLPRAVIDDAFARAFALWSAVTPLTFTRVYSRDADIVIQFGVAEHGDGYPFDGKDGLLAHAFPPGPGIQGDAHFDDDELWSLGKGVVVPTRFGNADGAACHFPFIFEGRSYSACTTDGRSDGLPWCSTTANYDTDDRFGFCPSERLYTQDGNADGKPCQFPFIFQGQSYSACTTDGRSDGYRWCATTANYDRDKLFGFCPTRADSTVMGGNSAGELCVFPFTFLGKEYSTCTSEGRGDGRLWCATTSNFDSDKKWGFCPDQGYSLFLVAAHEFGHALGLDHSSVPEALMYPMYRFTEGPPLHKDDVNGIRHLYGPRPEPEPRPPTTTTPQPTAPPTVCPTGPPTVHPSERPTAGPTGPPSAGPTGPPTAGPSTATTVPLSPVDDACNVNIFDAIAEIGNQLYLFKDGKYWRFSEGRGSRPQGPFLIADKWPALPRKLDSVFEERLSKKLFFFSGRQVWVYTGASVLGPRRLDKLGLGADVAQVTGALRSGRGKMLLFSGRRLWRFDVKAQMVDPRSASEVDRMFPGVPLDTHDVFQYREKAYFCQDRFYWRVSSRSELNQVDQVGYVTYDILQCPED
UniProt P08254, residues 100-477: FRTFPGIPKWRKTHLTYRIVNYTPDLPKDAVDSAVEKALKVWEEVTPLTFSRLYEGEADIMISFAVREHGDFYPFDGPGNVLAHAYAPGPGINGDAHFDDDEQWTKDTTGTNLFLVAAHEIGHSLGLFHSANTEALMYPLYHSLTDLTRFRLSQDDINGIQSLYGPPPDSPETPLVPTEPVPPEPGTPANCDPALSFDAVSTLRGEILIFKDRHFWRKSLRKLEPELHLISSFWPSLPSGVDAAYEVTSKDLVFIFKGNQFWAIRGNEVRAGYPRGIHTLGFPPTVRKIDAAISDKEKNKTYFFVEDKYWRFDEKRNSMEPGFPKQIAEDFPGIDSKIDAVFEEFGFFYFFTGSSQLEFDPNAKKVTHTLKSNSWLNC

What was measured:
Assay in all cases: MMP cross reactivity ELISA, IgG4 at 2 µg/ml
[1] = molecular target: MMP-26 catalytic domain, tagged with hexa-histidine (human) (UniProt Q9NRE1)
MMP-9 = MMP-9 (UniProt P14780)
MMP-3 = MMP-3 (UniProt P08254)

B1: A1-orig (antibody, human IgG4, V domains shown)
VH: EVQLLESGGGLVQPGGSLRLSCAASGFTFSYYRMSWVRQAPGKGLEWVSSIGPSGGDTLYADSVKGRFTISRDNSKNTLYLQMNSLRAEDTAVYYCARSFSSGPYYFDYWGQGTLVTVSS
VL: QSVLTQPPSASGTPGQRVIISCSGSSSNIGSHYVHWYQQVPGTAPKLLIYRNGQRPSGVPDRFSGFKSGTSASLAISGLRSEDEANYYCATWDDSVLFGGGTTLTVLG
binding [1]: binds
binding (MMP-9): binds

B3: B10 (antibody, human IgG4, V domains shown)
VH: EVQLLESGGGLVQPGGSLRLSCAASGFTFSSYAMMWVRQAPGKGLEWVSWIVPSGGTTFYADSVKGRFTISRDNSKNTLYLQMNSLRAEDTAVYYCARGLYRWGQGTLVTVSSASTKGPSVFP
VL: DIQMTQSPSSLSASVGDRVTIACRTSQNVNRYLNWYQHKLGQAPKLLIYGATILQSGVPSRFRGSGSGTDFILTITNLQPEDFAVYYCQQTYSPPLTFGQGTKAEFKGTVAAPSV
binding [1]: binds
binding (MMP-3): binds

B6: C10 (antibody, human IgG4, V domains shown)
VH: EVQLLESGGGLVQPGGSLRLSCAASGFTFSVYVMMWVRQAPGKGLEWVSGIVPSGGKTHYADSVKGRFTISRDNSKNTLYLQMNSLRAEDTAVYYCARPDYGGNSRPLEYWGQGTLVTVSS
VL: QSELTQPASVSGSPGQSITISCTGTSSDVGSYNLVSWYQQHPGKAPKLMIYEGSKRPSGVSNRFSGSKSGNTASLTISGLQAEDEADYYCCSYAGSSTYVFGTGTKVTVLG
binding [1]: binds

B7: C11 (antibody, human IgG4, V domains shown)
VH: EVQLLESGGGLVQPGGSLRLSCAASGFTFSEYPMWWVRQAPGKGLEWVSWIYPSGGNTDYADSVKGRFTISRDNSKNTLYLQMNSLRAEDTAVYYCAIPYCSSSSCPLHWGQGTLVTVSS
VL: QSELTQPPSASGSPGQSVTISCTGTSSDVGGYNYVSWYQQHPDKAPKLLIYEVTQRPSGVPDRFSGSRSGNTASLTVSGLQAEDEADYYCSSYAGRNNLYVFGPGTKVTVLG
binding [1]: binds

B8: C12 (antibody, V domains shown)
VH: EVQLLESGGGLVQPGGSLRLSCAASGFTFSAYNMMWVRQAPGKGLEWVSRIYPSGGYTLYADSVKGRFTISRDNSKNTLYLQMNSLRAEDTAVYYCARQKLMIRAVRPFDYWGQGTLVTVSS
VL: QSELTQPPSVSVSPAQTASITCSGDKLGDKYACWYQQKPGQSPVLVIYEDTKRPSGIPERFSGSNSGNTATLTISGTQVMDEADYYCQVWDSSTAVFGGGTKLTVLG
binding [1]: binds
binding (MMP-3): binds

B9: D01 (antibody, V domains shown)
VH: EVQLLESGGGLVQPGGSLRLSCAASGFTFSMYLMFWVRQAPGKGLEWVSVISSSGGETSYADSVKGRFTISRDNSKNTLYLQMNSLRAEDTAVYYCARQVSDWTRLYSFDYWGQGTLVTVSS
VL: QSELTQPPSASGTPGQRITISCSGSSSNIGSNYVYWYQQFPETAPKLLISRNDQRPSGVPDRFSGSKSGTSASLAISGLRSEDEADYYCASWDDSLSGVVFGGGTKLTVLG
binding [1]: binds

B10: D02 (antibody, human IgG4, V domains shown)
VH: EVQLLESGGGLVQPGGSLRLSCAASGFTFSWYDMAWVRQAPGKGLEWVSRIVPSGGHTSYADSVKGRFTISRDNFKNTLYLQMNSLRAEDTAVYYCARRASRPEFFDYWGQGALVTVSS
VL: DIQMTQSPSFLSASVGDRVTITCRASQGISTYLAWYQQKPGKAPKVLIYTASTLQSGVPSRFSGSGSGTEFTLTISSLQPEDFATYYCQQSYITPPEVTFGPGTKVDIKR
binding [1]: binds

B11: D03 (antibody, human IgG4, V domains shown)
VH: EVQLLESGGGLVQPGGSLRLSCAASGFTFSWYRMDWVRQAPGKGLEWVSVIGSSGGMTYYADSVKGRFTISRDNSKNTLYLQMNSLRAEDTAVYYCARRVVGGAGMDVWGQGTTVTVSS
VL: DIQMTQSPSAMSASVGDRVTITCRASQVMINYIAWFRQKPGKVPERLIYAASTLQNGVPSRFSGSGSGTDFTLTISRLEPEDFAVYYCQHRITWPPALTFGGGTTVEIKR
binding [1]: binds

B14: D07 (antibody, human IgG4, V domains shown)
VH: EVQLLESGGGLVQPGGSLRLSCAASGFTFSEYNMFWVRQAPGKGLEWVSYIYSSGGSTDYADSVKGRFTISRDNSKNTLYLQMNSLRAEDTAVYYCARVGIAARPFDPWGQGTLVTVSS
VL: QSELTQPASVSGSPGQSITISCTGTNSDIGGYNYVSWYQQHPGKVPKLLIFEVNNRPSGVSSRFSGSKSGDTASLTISGLQPEDEAVYYCGSFTVSVTYVFGTGTKVTVLG
binding [1]: binds

B15: D08 (antibody, human IgG4, V domains shown)
VH: EVQLLESGGGLVQPGGSLRLSCAASGFTFSFYAMWWVRQAPGKGLEWVSRIYSSGGKTWYADSVKGRFTISRDNSKNTLYLQMNSLRAEDTAVYYCARVGMSTYAFDIWGQGTMVTVSS
VL: DIQMTQSPSSLSASVGDRVTITCRASQSISDYLNWYQQKPGKAPDLLIYAASSLQSGVPSRFSGSGSGTDFTLTVSSLQPEDFATYFCQQSYSIPLTFGGGTKVEITR
binding [1]: binds

The remaining lines, values ahead:

binding [1]: binds
binding (MMP-9): binds
B2: D6-orig (antibody, human IgG4, V domains shown)
VH: EVQLLESGGGLVQPGGSLRLSCAASGFTFSMYSMRWVRQAPGKGLEWVSSIYPSGGSTEYADSVKGRFTISRDNSKNTLYLQMNSLRAEDTAVYYCAREGGENDYWGQGTLVTVSS
VL: DIQMTQSPLSLSASVGDRVAITCRASQSIDTYLNWYQQKPGKAPKLLIYAASKLEDGVPSRFSGSGTGTDFTLTIRSLQPEDFASYFCQQSYSSPGITFGPGTKVEIKR

binding (MMP-3): binds
binding (MMP-9): binds
B4: C02 (antibody, human IgG4, V domains shown)
VH: EVQLLESGGGLVQPGGSLRLSCAASGFTFSHYSMRWVRQAPGKGLEWVSYIVPSGGFTQYADSVKGRFTISRDNSKNTLYLQMNSLRAEDTAVYYCARGTHLPGVDYWGQGTLVTVSS
VL: DIQMTQSPSSLSASVGDRVTITCRASQTISTYLVWYQQKPEKAPTLLISGASTLQSGVPNRFRGSGSGTDFTLAISSLQPEDFATYYCQQSYTSPRTFGQGTKVEIKR

binding [1]: binds
B5: C09 (antibody, human IgG4, V domains shown)
VH: EVQLLESGGGLVQPGGSLRLSCAASGFTFSQYFMNWVRQAPGKGLEWVSYISGGRTPYADSVKGRFTISRDNSKNTLYLQMNSLRAEDTAVYYCAILLGPSSSNHPFLGPWGQGTLVTVSS
VL: DIQMTQSPGTLSLSPGERATLSCRASQSVSSTYLAWYQQKPGQAPRLLISGASSRATGIPDRFSGSGSGTDFTLTISRLEPEDFAVYYCQQYGSSPYTFGQGTKLEIKR

binding [1]: binds
B12: D04 (antibody, human IgG4, V domains shown)
VH: EVQLLESGGGLVQPGGSLRLSCAASGFTFSDYQMMWVRQAPGKGLEWVSRISPSGGMTRYADSVKGRFTISRDNSKNTLYLPMNSLRAEDTAVYYCARSGPYYFDYWGQGTLVTVSS
VL: DIQMTQSPSSLSASVGDRVAITCRASQSIDTYLNWYQQKPGKAPKLLIYAASKLEDGVPSRFSGSGTGTDFTLTIRSLQPEDFASYFCQQSYSSPGITFGPGTKVEIKR

binding [1]: binds
B13: D06 (antibody, human IgG4, V domains shown)
VH: EVQLLESGGGLVQPGGSLRLSCAASGFTFSGYIMEWVRQAPGKGLEWVSVIVSSGGFTMYADSVKGRFTISRDNSKNTLYLQMNSLRAEDTAVYYCARVGDSKGGYYLDYWGQGTLVTVSS
VL: DIQMTQSPSSLSASVGDRVTITCRTSQIINTYLNWYQQKPGKAPKLLIYAASTLQGGVPSRFSGSGSGTDFTLTIKSLQPDDFATYYCQQSYTSPRTFGQGTKVEIKR
